Reference: PubChem BioAssay AID258 (DTP/NCI, 2004)
The list is a part of this screen's results and no random one: it is rich in T/C values a quarter to a half above the control, in often repeated tests (any T/C) and in doses without a T/C. Further doses and runs are listed elsewhere. T/C gives the treated animals as a percentage of the vehicle group. Some doses have a count of surviving animals in place of a T/C: the source files T/C as zero there, which appears to mark a toxic dose or a test without result, not a measured value. Some survivor counts are full or nearly so, which does not show that the dose was tolerated: the source hardly ever lists a survival T/C far under the control, and the zero likely stands for such cases as well. Survivors were counted at the toxicity check, usually on the fifth day, unless a day is given; later deaths do not show. Schedule codes are those of the source, taken here to give the interval after Q, in days (D) or hours (H), and the number of doses after X. Some entries were tested several times; their values stand side by side, smallest first. Additions like (4×) stand for listed records that agree. Some schedules carry Z or #; the key to these is not given. Where survival is the endpoint, the PubChem record calls one and a half times the control and up active, and a quarter to a half above the control has no call in these data; cut-offs in other NCI protocols can differ. Some T/C values are followed by the survivors on the day toxicity was checked, most often the fifth; without a count, all were alive then.

Tested on: CD2F1 mice, L1210 leukemia sc, survival T/C
Experiment: NCI In Vivo Anticancer Drug Screen. Data for tumor model L1210 Leukemia (subcutaneous) in CD2F1 (CDF1) mice
Details: T/C endpoint: median survival time, higher T/C = longer survival
Procedure, shortened: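 Transplantable tumor-bearing mice were treated with compound; survival or tumor size measured and expressed as treated-group value (T) divided by vehicle-treated control value (C).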

`C[C@H](N)C(=O)N[C@@H]1[C@H]2C(=C(O)C[C@@H](O)[C@@H]2O)C(=O)O[C@]1(C)C(Cl)Cl` was tested, and the T/C (dose: 1.25 mg/kg/injection, schedule: Q01DX005 (iv), vehicle: water) was 125 % of control, the T/C (dose: 1.5 mg/kg/injection, schedule: Q01DX009 (ip), vehicle: water) was 149 % of control and the T/C (dose: 1.5 mg/kg/injection, schedule: Q01DX009 (sc), vehicle: water) was 146 % of control. The T/C (dose: 2.5 mg/kg/injection, schedule: Q01DX005 (ip), vehicle: water) was 139 % of control [5 of 6 alive], the T/C (dose: 2.5 mg/kg/injection, schedule: Q01DX005 (iv), vehicle: water) was 139 % of control and the survivor count (dose: 5.0 mg/kg/injection, schedule: Q01DX005 (ip), vehicle: water) was 0 of 6. The survivor count (dose: 5.0 mg/kg/injection, schedule: Q01DX005 (iv), vehicle: water) was 1 of 6, the survivor count (dose: 6.0 mg/kg/injection, schedule: Q01DX009 (ip), vehicle: water) was 0 of 6 and the survivor count (dose: 6.0 mg/kg/injection, schedule: Q01DX009 (sc), vehicle: water) was 0 of 6. The survivor count (dose: 10.0 mg/kg/injection, schedule: Q01DX005 (ip), vehicle: water) was 0 of 6, the survivor count (dose: 10.0 mg/kg/injection, schedule: Q01DX005 (iv), vehicle: water) was 0 of 6 and the survivor count (dose: 12.0 mg/kg/injection, schedule: Q01DX009 (sc), vehicle: water) was 0 of 6. For the same molecule, the T/C (dose: 24.0 mg/kg/injection, schedule: Q01DX009 (oral), vehicle: water) was 135 % of control [5 of 6 alive].
`CCN=c1cc2oc3cc(NCC)c(C)cc3c(-c3ccccc3C(=O)OCC)c-2cc1C` was tested, and the survivor count (dose: 2.5 mg/kg/injection, schedule: Q01DX009 (ip), vehicle: water) was 1 of 10, the survivor count (dose: 5.0 mg/kg/injection, schedule: Q01DX009 (ip), vehicle: water) was 1 of 10 and the survivor count (dose: 5.0 mg/kg/injection, schedule: Q01DX009 (sc), vehicle: water) was 1 of 10. For the same molecule, the survivor count (dose: 10.0 mg/kg/injection, schedule: Q01DX009 (ip), vehicle: water) was 0 of 10, the survivor count (dose: 10.0 mg/kg/injection, schedule: Q01DX009 (sc), vehicle: water) was 0 of 10 and 6 of 10 and the survivor count (dose: 20.0 mg/kg/injection, schedule: Q01DX009 (ip), vehicle: water) was 0 of 10. For the same molecule, the survivor count (dose: 20.0 mg/kg/injection, schedule: Q01DX009 (sc), vehicle: water) was 0 of 10 (2×) and the survivor count (dose: 40.0 mg/kg/injection, schedule: Q01DX009 (sc), vehicle: water) was 0 of 10.
`CCN(CC)CCNc1ccc(CO)c2sc3ccccc3c(=O)c12` was tested, and the T/C (dose: 40.0 mg/kg/injection, schedule: Q01DX009 (ip), vehicle: water) was 140 and 142 % of control and the T/C (dose: 80.0 mg/kg/injection, schedule: Q01DX009 (ip), vehicle: water) was 141 and 142 % of control.
`CO[C@@]12[C@H](COC(N)=O)C3=C(C(=O)C(C)=C(N)C3=O)N1C[C@@H]1N[C@@H]12` was tested, and the T/C (dose: 5.42 mg/kg/injection, schedule: Q01DX Z (sc), vehicle: saline) was 129 % of control.
For `N#CC(c1ccccc1)c1cccc2ccccc12` (configuration not stated), the T/C (dose: 108.0 mg/kg/injection, schedule: Q01DX Z (sc), vehicle: methylcellulose (MC)) was 142 % of control [9 of 10 alive], the T/C (dose: 180.0 mg/kg/injection, schedule: Q01DX Z (sc), vehicle: methylcellulose (MC)) was 133 % of control and the survivor count (dose: 300.0 mg/kg/injection, schedule: Q01DX Z (sc), vehicle: methylcellulose (MC)) was 3 of 10. For the same molecule, the survivor count (dose: 500.0 mg/kg/injection, schedule: Q01DX Z (sc), vehicle: methylcellulose (MC)) was 0 of 10.
`O=NN(CCCl)C(=O)NC1CCCCC1` was tested, and the T/C (dose: 2.0 mg/kg/injection, schedule: Q01DX009 (ip), vehicle: saline + alcohol) was 125 % of control, the T/C (dose: 3.0 mg/kg/injection, schedule: Q01DX Z (ip), vehicle: carboxymethylcellulose (CMC)) was 133 and 137 % of control and the T/C (dose: 4.0 mg/kg/injection, schedule: Q01DX009 (sc), vehicle: saline + alcohol, evaluated on day 30) was 149 % of control. For the same molecule, the T/C (dose: 4.0 mg/kg/injection, schedule: Q01DX009 (sc), vehicle: saline + alcohol, evaluated on day 45) was 168, 227, 250 % of control, the T/C (dose: 5.0 mg/kg/injection, schedule: Q01DX Z (iv), vehicle: carboxymethylcellulose (CMC)) was 125 % of control and the T/C (dose: 7.5 mg/kg/injection, schedule: Q01DX009 (ip), vehicle: Klucel (hydroxypropylcellulose) (HPC)) was 149 % of control. For the same molecule, the T/C (dose: 8.0 mg/kg/injection, schedule: Q01DX009 (sc), vehicle: saline + alcohol, evaluated on day 30) was 203 % of control, the T/C (dose: 8.0 mg/kg/injection, schedule: Q01DX009 (sc), vehicle: saline + alcohol, evaluated on day 45) was 219, 336, 512, 520 % of control and the T/C (dose: 23.0 mg/kg/injection, schedule: Q01DX001 (sc), vehicle: carboxymethylcellulose (CMC)) was 125 % of control. The T/C (dose: 32.0 mg/kg/injection, schedule: Q01DX009 (ip), vehicle: saline + alcohol) was 136 % of control, the T/C (dose: 32.0 mg/kg/injection, schedule: Q01DX009 (sc), vehicle: saline + alcohol) was 146 % of control and the T/C (dose: 39.0 mg/kg/injection, schedule: Q01DX001 (sc), vehicle: carboxymethylcellulose (CMC)) was 125 % of control. For the same molecule, the T/C (dose: 39.0 mg/kg/injection, schedule: Q01DX Z (ip), vehicle: carboxymethylcellulose (CMC)) was 133 % of control, the T/C (dose: 39.0 mg/kg/injection, schedule: Q01DX Z (iv), vehicle: carboxymethylcellulose (CMC)) was 144 % of control and the T/C (dose: 39.0 mg/kg/injection, schedule: Q01DX Z (sc), vehicle: carboxymethylcellulose (CMC)) was 144 % of control. The T/C (dose: 39.0 mg/kg/injection, schedule: Q07DX Z (sc), vehicle: carboxymethylcellulose (CMC)) was 125 % of control, the survivor count (dose: 60.0 mg/kg/injection, schedule: Q01DX009 (ip), vehicle: Klucel (hydroxypropylcellulose) (HPC)) was 8 of 10 and the T/C (dose: 65.0 mg/kg/injection, schedule: Q01DX Z (oral), vehicle: carboxymethylcellulose (CMC)) was 127 % of control. For the same molecule, the T/C (dose: 65.0 mg/kg/injection, schedule: Q01DX Z (sc), vehicle: carboxymethylcellulose (CMC)) was 138 % of control and the survivor count (dose: 120.0 mg/kg/injection, schedule: Q01DX009 (ip), vehicle: Klucel (hydroxypropylcellulose) (HPC)) was 8 of 10.
`Nc1nc2n[nH]nc2c(=O)[nH]1` was tested, and the T/C (dose: 25.0 mg/kg/injection, schedule: Q01DX009 (sc), vehicle: saline) was 125 % of control.
With `O=C(O)c1[nH]c(=O)[nH]c(=O)c1F` the T/C (dose: 5.0 mg/kg/injection, schedule: Q01DX Z (sc), vehicle: saline) was 133 % of control, the T/C (dose: 65.0 mg/kg/injection, schedule: Q01DX Z (sc), vehicle: saline) was 144 % of control and the T/C (dose: 108.0 mg/kg/injection, schedule: Q01DX Z (sc), vehicle: saline) was 144 % of control. For the same molecule, the T/C (dose: 180.0 mg/kg/injection, schedule: Q01DX Z (sc), vehicle: saline) was 138 % of control.
With `Nc1nc(=S)c2ncn(C3OC(CO)C(O)C3O)c2[nH]1` (configuration not stated) the T/C (dose: 14.0 mg/kg/injection, schedule: Q01DX Z (sc), vehicle: other) was 138 % of control, the T/C (dose: 23.0 mg/kg/injection, schedule: Q01DX Z (sc), vehicle: other) was 138 % of control and the T/C (dose: 39.0 mg/kg/injection, schedule: Q01DX Z (sc), vehicle: other) was 128 % of control.
`NS(=O)(=O)OCCCCCCCOS(N)(=O)=O` was tested, and the survivor count (dose: 18.0 mg/kg/injection, schedule: Q01DX009 (ip), vehicle: saline with Tween-80) was 6 of 6 and the T/C (dose: 50.0 mg/kg/injection, schedule: Q01DX009 (ip), vehicle: saline with Tween-80) was 143 % of control.
With `CN(CCN(C)C(=O)CCOS(C)(=O)=O)C(=O)CCOS(C)(=O)=O` the T/C (dose: 50.0 mg/kg/injection, schedule: Q01DX009 (ip), vehicle: saline) was 130 % of control, the T/C (dose: 100.0 mg/kg/injection, schedule: Q01DX009 (ip), vehicle: saline) was 142 % of control and the survivor count (dose: 400.0 mg/kg/injection, schedule: Q01DX009 (ip), vehicle: saline) was 7 of 10 and 10 of 10.
`Nc1nc(=S)c2[nH]cnc2[nH]1` was tested, and the survivor count (dose: 1.3 mg/kg/injection, schedule: Q01DX Z (sc), vehicle: other) was 6 of 10.
